Drawing on patent US20230075368A1, “IDENTIFICATION OF AN EGFR-BIN3 PATHWAY THAT ACTIVELY SUPPRESSES INVASION AND REDUCES TUMOR SIZE IN GLIOBLASTOMA” (The United States Govemment as represented by the …, priority 2020, published 2023), this text covers binding for 1 substance.

Amino acid sequences for entries named in this document (tags omitted). A change or cut given only in a name is not applied to a line headed by its entry.
UniProt P60953: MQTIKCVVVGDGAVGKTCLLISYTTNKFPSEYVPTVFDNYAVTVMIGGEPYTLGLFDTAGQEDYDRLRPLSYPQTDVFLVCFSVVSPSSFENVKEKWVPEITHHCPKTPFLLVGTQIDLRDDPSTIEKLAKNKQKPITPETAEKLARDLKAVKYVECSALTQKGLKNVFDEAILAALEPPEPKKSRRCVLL
UniProt Q96N67: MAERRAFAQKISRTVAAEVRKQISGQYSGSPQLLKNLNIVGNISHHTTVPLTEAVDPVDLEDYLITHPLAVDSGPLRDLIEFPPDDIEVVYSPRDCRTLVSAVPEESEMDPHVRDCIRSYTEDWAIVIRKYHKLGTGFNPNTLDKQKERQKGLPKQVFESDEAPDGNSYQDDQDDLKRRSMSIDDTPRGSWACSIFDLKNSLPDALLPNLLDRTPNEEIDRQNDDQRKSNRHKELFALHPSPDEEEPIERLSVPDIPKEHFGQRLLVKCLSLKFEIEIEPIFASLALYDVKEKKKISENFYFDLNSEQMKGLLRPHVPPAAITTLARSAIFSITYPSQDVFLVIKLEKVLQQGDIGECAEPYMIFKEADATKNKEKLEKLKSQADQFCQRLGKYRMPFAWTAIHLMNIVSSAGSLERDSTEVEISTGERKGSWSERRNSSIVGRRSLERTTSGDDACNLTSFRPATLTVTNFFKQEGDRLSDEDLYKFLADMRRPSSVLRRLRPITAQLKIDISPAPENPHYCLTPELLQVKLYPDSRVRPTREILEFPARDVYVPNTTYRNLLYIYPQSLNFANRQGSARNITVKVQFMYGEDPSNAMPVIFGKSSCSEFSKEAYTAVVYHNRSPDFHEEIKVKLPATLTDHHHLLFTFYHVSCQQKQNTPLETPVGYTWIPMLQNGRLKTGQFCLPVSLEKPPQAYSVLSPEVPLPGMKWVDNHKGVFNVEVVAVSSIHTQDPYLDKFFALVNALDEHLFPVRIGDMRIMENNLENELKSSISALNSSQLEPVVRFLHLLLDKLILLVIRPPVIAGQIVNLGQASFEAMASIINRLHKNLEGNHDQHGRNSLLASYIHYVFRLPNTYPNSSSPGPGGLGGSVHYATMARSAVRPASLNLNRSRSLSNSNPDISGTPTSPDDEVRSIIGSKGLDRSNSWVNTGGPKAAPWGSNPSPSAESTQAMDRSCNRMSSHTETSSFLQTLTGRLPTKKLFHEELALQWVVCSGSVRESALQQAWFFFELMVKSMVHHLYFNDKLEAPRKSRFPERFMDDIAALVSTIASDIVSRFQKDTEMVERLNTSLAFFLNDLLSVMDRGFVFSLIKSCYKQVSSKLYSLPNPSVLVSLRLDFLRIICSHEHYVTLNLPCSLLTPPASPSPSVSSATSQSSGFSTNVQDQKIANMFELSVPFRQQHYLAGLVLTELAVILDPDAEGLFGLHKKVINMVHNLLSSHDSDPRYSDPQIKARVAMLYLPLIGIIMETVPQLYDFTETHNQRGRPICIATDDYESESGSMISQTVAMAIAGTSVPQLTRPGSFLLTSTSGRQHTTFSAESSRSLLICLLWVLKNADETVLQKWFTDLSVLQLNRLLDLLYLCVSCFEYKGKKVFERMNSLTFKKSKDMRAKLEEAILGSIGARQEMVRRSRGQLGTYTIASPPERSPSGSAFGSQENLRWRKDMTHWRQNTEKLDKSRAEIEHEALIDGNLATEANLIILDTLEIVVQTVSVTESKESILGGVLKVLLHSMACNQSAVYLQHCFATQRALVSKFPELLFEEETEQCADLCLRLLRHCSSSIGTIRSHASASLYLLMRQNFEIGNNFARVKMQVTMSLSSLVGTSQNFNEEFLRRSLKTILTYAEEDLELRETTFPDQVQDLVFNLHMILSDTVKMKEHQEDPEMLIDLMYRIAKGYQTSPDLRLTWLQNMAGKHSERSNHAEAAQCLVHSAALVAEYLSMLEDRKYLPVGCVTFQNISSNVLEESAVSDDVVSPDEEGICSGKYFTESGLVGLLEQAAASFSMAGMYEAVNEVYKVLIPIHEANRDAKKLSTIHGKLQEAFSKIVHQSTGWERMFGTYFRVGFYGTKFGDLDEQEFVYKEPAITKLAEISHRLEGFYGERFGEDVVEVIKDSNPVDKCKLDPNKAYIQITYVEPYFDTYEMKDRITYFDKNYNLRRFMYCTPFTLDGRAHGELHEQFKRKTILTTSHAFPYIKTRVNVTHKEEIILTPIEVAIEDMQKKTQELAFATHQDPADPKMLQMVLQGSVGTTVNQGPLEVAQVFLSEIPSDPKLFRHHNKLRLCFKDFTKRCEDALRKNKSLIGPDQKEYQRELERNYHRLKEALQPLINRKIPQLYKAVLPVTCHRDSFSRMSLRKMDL

The test concerns the target Cdc42 G15A agarose beads (ab211185, Abcam) (UniProt P60953). In words: pull-down with Cdc42 G15A agarose beads from lysates of GBM12 and GBM6, Western blot with DOCK7 antibody (FIG. 9P).

These are yes or no findings as the source states them, for the method shown. Binding seen in cells or lysates may run through a third protein. Some results given as binding are weak or reduced against the parent protein; the word gives no strength.

Consider “DOCK7 (dedicator of cytokinesis 7) (from UniProt Q96N67 1-2140) (enzyme)”, for which the binding result is “binds”.
